Test results from publication PMC3178557.
These are yes or no findings as the source states them, for the method shown. In cells and extracts the contact can be indirect. Some binding calls cover weakened binding; strength is not graded here. Where a sequence is shown, tags or fusion partners need not be part of it.

Protein sequences, listed by entry. Tags and fused reporters are not part of them.
UniProt P31941: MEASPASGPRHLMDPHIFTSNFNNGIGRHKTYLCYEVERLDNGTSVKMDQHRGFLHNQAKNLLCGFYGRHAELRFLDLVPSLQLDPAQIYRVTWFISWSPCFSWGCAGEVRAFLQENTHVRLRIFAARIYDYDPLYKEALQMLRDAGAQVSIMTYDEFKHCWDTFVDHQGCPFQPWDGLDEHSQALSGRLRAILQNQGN

Biological target: T1, Flag-tagged HIV-2ROD Vpx (HIV-2ROD) (UniProt P06939)
T1 sequence: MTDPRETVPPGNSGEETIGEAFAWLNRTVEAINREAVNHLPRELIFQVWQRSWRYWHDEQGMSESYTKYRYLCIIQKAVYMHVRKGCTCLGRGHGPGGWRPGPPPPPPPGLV
Test: co-IP; HEK293T co-transfected 1:1 with Flag-tagged Vpx/Vpr and HA-tagged A3A; lysed in 150 mM NaCl buffer, anti-Flag antibody-coated beads 3 hours at +4°C, washed thrice with 400 mM NaCl buffer; WB

HA-tagged APOBEC3A (from UniProt P31941 1-199)
binding: binds
